PubChem BioAssay AID1259308 | NCATS – 2017
This is an unselected part of about 59,000 reagents tested. About 1,510 of them (2.6%) count as active. 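Calls use total luciferase alone and ignore viability, so some active siRNAs may act by altering cell number.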 A number with no mark means an inactive call. The numbers tell different reagents against one gene apart. Not all columns of the deposit are shown.

Purpose: 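Knock-downs that increase output of a recombinant reporter protein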 (primary screen)
Cell system: human HEK293 embryonic kidney cells stably expressing firefly luciferase (HEK-CMV-Luc2-Hygro)
Reagent: single siRNA against human genes, 0.8 pmol siRNA per well
Timing: 72 h
Read-out: 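Reporter luminescence and viable-cell signal on separate replicate plates, given as percent of non-targeting control and median/MAD z-scores, plus per-cell luciferase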
Scale: total luciferase, z-score: higher = more reporter protein produced
Hit rule: 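Active when the median/MAD z-score for overall luciferase is greater than 3; a gene was taken forward for validation with new siRNAs if at least two of its three siRNAs passed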
Meaning of the calls: active = raised luciferase; inactive = no rise

no.	target	reagent no.	total luciferase, z-score
1	SLC39A5 (GeneID 283375)	1	1.34
2	SLC39A5 (GeneID 283375)	2	0.427
3	SLC39A5 (GeneID 283375)	3	0.875
4	JSRP1 (GeneID 126306)	1	-0.586
5	JSRP1 (GeneID 126306)	2	0.959
6	JSRP1 (GeneID 126306)	3	-0.101
7	DZANK1 (GeneID 55184)	1	-0.243
8	DZANK1 (GeneID 55184)	2	-0.214
9	DZANK1 (GeneID 55184)	3	1.17

A portion of the results above, for reference:
no.	target	reagent no.	total luciferase, z-score
8	DZANK1 (GeneID 55184)	2	-0.214
9	DZANK1 (GeneID 55184)	3	1.17

Continued.
no.	target	reagent no.	total luciferase, z-score
10	SPPL2A (GeneID 84888)	1	0.521
11	SPPL2A (GeneID 84888)	2	-0.535
12	SPPL2A (GeneID 84888)	3	-0.471
13	PIK3R6 (GeneID 146850)	1	2.81
14	PIK3R6 (GeneID 146850)	2	0.019
15	PIK3R6 (GeneID 146850)	3	0.0765
16	OCM (GeneID 654231)	1	0.134
17	OCM (GeneID 654231)	2	2.97
18	OCM (GeneID 654231)	3	-0.399
19	SLC2A5 (GeneID 6518)	1	1.26
20	SLC2A5 (GeneID 6518)	2	-1.89
21	SLC2A5 (GeneID 6518)	3	-1.04
22	SHH (GeneID 6469)	1	-1.48
23	SHH (GeneID 6469)	2	-0.435
24	SHH (GeneID 6469)	3	-1.48
